Measurements reported in PubChem BioAssay AID2685 (National Center for Advancing Translational Sciences (NCATS), 2010).
The other results are listed elsewhere or left out. These are further read-outs of the screen, such as a control signal, another cell line or another target. No call is given for them. Compounds called inactive in the main read-out are mostly missing here. Potencies come from curve fits of mixed quality, noted in brackets.

Assay: qHTS Assay for Lipid Storage Modulators in Drosophila S3 Cells;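 as to cell number change: cells counted by Cell Tracker Red CMTPX staining in the red channel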
Conditions: BODIPY lipid droplet fluorescence, 18-24 h; for cell number change: measured here: cell count max response, cells fed with added oleic acid
Summary of the method: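 Laser-scanning cytometry quantifies lipid droplet accumulation (500–530 nm total intensity; droplet/cell object ratio) in oleic acid-fed (400 uM added) Drosophila S3 cells treated with a concentration series. 20 uM Triacsin C defined 100% inhibition.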

[1] = measured here: cell number channel AC50, cells fed with added oleic acid
[2] = measured here: lipid fluorescence (Fed channel) AC50, cells fed with added oleic acid

Nc1nonc1-n1nnc(C(=O)O)c1-c1cccs1
cell number change: -181% | AC50 [1]: 6.51 µM [falling, full curve] | AC50 [2]: 4.11 µM [falling, full curve]

CCc1cc2c(=O)n(-c3ccccc3)c(SCC(N)=O)nc2s1
cell number change: -18.6% | AC50 [2]: 3.66 µM [falling, full curve, poor fit]

CCOC(=O)c1ccc(NC(=O)CSc2nc(=O)n3cccc(C)c3n2)cc1
AC50 [1]: 0.58 µM [rising, full curve]

N#Cc1c2c(c(-c3ccccc3)[nH]c1=O)CCCC2
cell number change: -13.3% | AC50 [2]: 4.61 µM [falling, full curve, poor fit]

CCC1(c2ccccc2)NC(=O)N(CC(=O)NCC2COc3ccccc3O2)C1=O (stereo not drawn)
cell number change: -25.7%

O=S(=O)(N1CCOCC1)N1CCN(c2ccccc2F)CC1
AC50 [1]: 3.26 µM [falling, partial curve]

O=C(NNC(=S)NC(=O)c1ccccc1[N+](=O)[O-])c1ccccc1[N+](=O)[O-]
cell number change: -3.38% | AC50 [1]: 1.64 µM [falling, partial curve, poor fit] | AC50 [2]: 0.116 µM [falling, full curve, poor fit]

O=C(CN1CCN(CC(=O)Nc2ccccc2F)CC1)Nc1cccc(F)c1
cell number change: 45.8% | AC50 [1]: 29.1 µM [rising, single point]

COc1cc(-c2noc(CCC(N)=O)n2)cc(OC)c1OC
cell number change: -16.5%

CCOc1cc2c3c(c1)C1(C(=O)N3C(C)(C)C=C2C)C(C#N)=C(N)Oc2cc(O)ccc21 (stereo not drawn)
cell number change: -65.2% | AC50 [1]: 29.1 µM [falling, single point] | AC50 [2]: 29.1 µM [falling, single point]

COCCCN(CC(=O)Nc1ccc(N2CCOCC2)cc1)S(=O)(=O)c1ccc(Cl)cc1
cell number change: 69.6% | AC50 [1]: 29.1 µM [rising, single point]

CCN1C(=O)c2cccc3c(S(=O)(=O)NCC4CCCO4)ccc1c23 (stereo not drawn)
cell number change: 16.8% | AC50 [2]: 29.1 µM [rising, single point]

CCCCCCSc1ccc([C@H]2N[C@@](C)(C(=O)OC)[C@H]3C(=O)N(C)C(=O)[C@@H]23)cc1
AC50 [2]: 0.0082 µM [falling, full curve, poor fit]

Cc1ccc(S(=O)(=O)CCC(=O)c2cccc([N+](=O)[O-])c2)cc1
cell number change: -73.9% | AC50 [1]: 11.2 µM [falling, partial curve]

Nc1cc(Cl)c(N)cc1Cl
cell number change: 2.29% | AC50 [2]: 1.64 µM [falling, full curve]

O=C(O)CC(NC(=O)OCc1ccccc1)c1ccc(Br)cc1 (stereo not drawn)
cell number change: -17% | AC50 [2]: 0.116 µM [falling, full curve, poor fit]

CC(=O)Nc1cccc(NC(=O)c2cccc(-c3ccc(O)cc3)c2)c1
cell number change: -8.55%

COc1ccc(-c2nsc(SCC(=O)Nc3ccc4c(c3)OCO4)n2)cc1
cell number change: 23.3%

Cc1ccccc1C(=O)NNc1ccc([N+](=O)[O-])cc1
cell number change: 0.972% | AC50 [2]: 7.31 µM [falling, partial curve]

CCOc1ccc(S(=O)(=O)NCCC(=O)OCC(=O)N2CC(=O)Nc3ccccc32)cc1
cell number change: 12.3%

CC1=NN(C(C#N)c2ccccc2)C(c2ccccc2)C1 (stereo not drawn)
cell number change: 23.8% | AC50 [2]: 29.1 µM [rising, single point]

Cc1ccc(CNc2ccc(N3C(=O)CCCC3=O)cc2[N+](=O)[O-])cc1
cell number change: 2.89% | AC50 [2]: 14.6 µM [rising, single point]

Cc1ccc(S(=O)(=O)N2CCC(C(=O)NCCc3ccc(S(N)(=O)=O)cc3)CC2)cc1
cell number change: -31% | AC50 [1]: 3.66 µM [falling, full curve] | AC50 [2]: 3.66 µM [falling, full curve]

O=C(NNS(=O)(=O)c1ccccc1F)c1cccc(S(=O)(=O)N2CCOCC2)c1
cell number change: 45% | AC50 [1]: 16.4 µM [rising, single point] | AC50 [2]: 0.116 µM [falling, full curve, poor fit]

COc1ccc(C(=O)OCC(N)=O)cc1[N+](=O)[O-]
AC50 [2]: 0.58 µM [rising, partial curve, poor fit]

S=C(NCc1ccccc1)Nc1ccc2ccccc2c1
cell number change: 5.49%

O=C(CN1CCN(c2cccc(Cl)c2)CC1)c1ccc(O)cc1O
cell number change: -17% | AC50 [2]: 29.1 µM [falling, single point]

CC(=O)N1CCN(S(=O)(=O)c2cccc(C(=O)NC3CC3)c2)CC1
cell number change: -8.96% | AC50 [1]: 0.411 µM [falling, full curve, poor fit]

CN(CCCNC(=O)c1nn(C)c2c1CS(=O)(=O)c1ccccc1-2)Cc1ccccc1
cell number change: 17.9%

NC(=O)C1(N2CCCCC2)CCN(Cc2nc3ccccc3c(=O)[nH]2)CC1
cell number change: 37% | AC50 [1]: 20.6 µM [rising, single point]

O=C(O)c1c(-c2ccc(Cl)cc2)cn2ccccc12
AC50 [2]: 3.26 µM [falling, partial curve, poor fit]

CC(=O)Nc1ccc(Oc2cc(C#N)c(C#N)cc2N2CCCCCC2)cc1
cell number change: -6.44% | AC50 [2]: 13 µM [falling, single point]

O=C(O)C1SCCN1S(=O)(=O)c1ccc(N=NN2CCOCC2)cc1 (stereo not drawn)
cell number change: -13.2% | AC50 [2]: 14.6 µM [falling, single point]

O=C1Cc2ccccc2Sc2ccc(O)cc21
cell number change: -30.6% | AC50 [1]: 0.164 µM [falling, full curve] | AC50 [2]: 0.82 µM [falling, full curve, poor fit]

COc1ccc(NC(=O)C(Cl)=C(Cl)Cl)cn1
cell number change: -5.22% | AC50 [2]: 0.0231 µM [falling, full curve, poor fit]

CCOC(=O)CNCCC(=O)c1ccc(Br)cc1
cell number change: -5.62% | AC50 [2]: 0.411 µM [falling, full curve, poor fit]

C=CCn1c(SCC(=O)c2ccc(Cl)cc2)nnc1-c1ccc2c(c1)OCO2
cell number change: 16.3% | AC50 [2]: 3.66 µM [rising, full curve, poor fit]

CC1CCN(C(=O)CSc2nc3cccnc3n2C)CC1
cell number change: 31.4%

CCc1nnc(NC(=O)c2cccnc2)s1
cell number change: 39.5% | AC50 [1]: 29.1 µM [rising, single point]

COc1ccc(CCN2C(=NC(=O)CC(C)C)SC3CS(=O)(=O)CC32)cc1OC (stereo not drawn)
cell number change: -3.63% | AC50 [2]: 2.06 µM [falling, single point]
